Drawing on patent US20060149521A1 (University of California, published 2006), this text covers binding for 2 molecules.

These are yes or no findings as the source states them, for the method shown. Binding calls can cover weak binding; strength is not graded here.

Assay [1] concerns the target glucocorticoid receptor (GR), full length. Kind of assay: peptide competition of GR binding to GST-GRIP1 (563-767).
Assay [2] shares this target. Kind of assay: peptide competition of GR binding to GRIP1.

With ENALLRYLLDKDD [GRIP1 NR-box 3 peptide ENALLRYLLDKDD], the binding entry in assay [1] was “binds”.

On to EKHKILHRLLQDS (also called original NR-box 2 peptide) [GRIP1 NR-box 2 peptide EKHKILHRLLQDS], for which, in assay [2], the binding result was “binds”.
